{
  "sequences": {"note": "Protein sequences, listed by entry. Tags and fused reporters are not part of them.", "UniProt P27695, whole entry, looked up": "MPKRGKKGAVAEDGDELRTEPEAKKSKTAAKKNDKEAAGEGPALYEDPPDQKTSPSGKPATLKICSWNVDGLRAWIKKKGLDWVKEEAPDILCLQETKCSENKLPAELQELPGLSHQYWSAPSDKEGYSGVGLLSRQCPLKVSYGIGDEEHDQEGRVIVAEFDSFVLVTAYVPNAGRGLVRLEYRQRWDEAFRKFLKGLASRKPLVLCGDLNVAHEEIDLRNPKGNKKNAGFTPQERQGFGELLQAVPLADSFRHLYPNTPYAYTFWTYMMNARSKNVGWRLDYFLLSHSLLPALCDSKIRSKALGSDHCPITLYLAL"},
  "source": "PubChem BioAssay AID2517",
  "about": "(National Center for Advancing Translational Sciences (NCATS), 2010)",
  "note": "In all, about 350,000 compounds went through this assay and about 1,200 (0.34%) were called active. The inconclusive results got no clear call from the source; some entries with a clear call stand among them for comparison. Calls come from the whole dose curve; as a rule, active = well fitted inhibition curve with a large enough effect; inconclusive = small, poorly fitted or top-dose-only effect; inactive = no such curve, though single readings can be large or run the other way. Potencies beside an inconclusive call are fits to weak or partial responses and may not hold up. Potency is the fitted concentration of half-maximal effect.",
  "data": [
    {"biological_target": "DNA repair nuclease/redox regulator APEX1 (Homo sapiens) (UniProt P27695)", "test": "qHTS Assay for Inhibitors of the Human Apurinic/apyrimidinic Endonuclease 1 (APE1); note: nearly all actives have a fitted effect of over 55% in size;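 for activity change, negative = inhibition: plate controls were vehicle for no effect and reference inhibitor for full effect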", "conditions": "recombinant APE1, TAMRA/BHQ-2 abasic DNA cleavage fluorescence; activity change, negative = inhibition: at 65.8 µM (top of the series)", "method_in_brief": "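Enzyme (0.75 nM final) and test compound are incubated 15 min at room temperature before adding 50 nM quenched THF abasic-site duplex. Cleavage dequenches TAMRA, followed at 525/598 nm over three reads one minute apart.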", "values": [
      {"smiles": "COc1cccc(NC(=O)COC(=O)CNS(=O)(=O)c2c(F)cccc2F)c1", "Potency": "inconclusive: 3.16 µM [inhibitor, single point]"},
      {"smiles": "O=C(COc1ccccc1)Nc1cccc2nsnc12", "Potency": "inconclusive: 35.5 µM [inhibitor, single point]"},
      {"smiles": "CCC(C(=O)OCC(=O)Nc1cc(C)ccc1OC)c1ccccc1", "note": "(stereo not given)", "Potency": "inconclusive: 11.2 µM [inhibitor, partial curve]"},
      {"smiles": "CCCCN(CCCNC(=O)C1CCN(S(=O)(=O)N2CCOCC2)CC1)Cc1ccccc1", "Potency": "inconclusive: 50.1 µM [inhibitor, single point]"},
      {"smiles": "CCOC(=O)C1CCCN1C(=O)c1ccc(OC)c(Br)c1", "note": "(stereo not given)", "Potency": "inconclusive: 35.5 µM [inhibitor, partial curve, poor fit]"},
      {"smiles": "O=C(Nc1ccc2c(c1)OCO2)N1CCN(c2ccccc2Cl)CC1", "Potency": "inconclusive: 35.5 µM [inhibitor, single point]"},
      {"smiles": "O=c1cc(CN2CCN(c3ccc(O)cc3)CC2)nc2scc(-c3ccccc3)n12", "Potency": "inconclusive: 31.6 µM [inhibitor, single point]"},
      {"smiles": "COCCCNc1c2c3c(cccc3[nH]c1=O)C(=O)c1ccccc1-2", "Potency": "inconclusive: 28.2 µM [inhibitor, partial curve]"},
      {"smiles": "COC(=O)CSc1nc2ccc(C)cc2[nH]1", "Potency": "inconclusive: 0.01 µM [inhibitor, full curve, poor fit]"},
      {"smiles": "Cc1n[nH]c(C)c1S(=O)(=O)N(CC(=O)Nc1ccc2c(c1)OCCO2)c1ccc(C(C)C)cc1", "Potency": "inconclusive: 17.8 µM [inhibitor, single point]"},
      {"smiles": "Cc1cccc(-n2c(SCC(=O)N3CCN(c4ccccn4)CC3)nnc2N2CCOCC2)c1", "activity change, negative = inhibition": "inactive: 2.2%"},
      {"smiles": "Nc1ncnc2nc(SCC(=O)Nc3ccccc3F)[nH]c12", "activity change, negative = inhibition": "inactive: 69.4% [at 12.4 µM]"},
      {"smiles": "O=C(O)COn1c(-c2ccccc2)nc2ccc(Cl)cc21", "activity change, negative = inhibition": "inactive: 1.07%"},
      {"smiles": "O=C(NCCCN1CCN(c2ccccc2F)CC1)C1CCC(=O)N1C1CCCC1", "note": "(stereo not given)", "Potency": "inconclusive: 7.94 µM [inhibitor, single point]"},
      {"smiles": "COc1c(O)cc2oc(-c3ccc(O)c(O)c3)cc(=O)c2c1O", "Potency": "active: 7.08 µM"},
      {"smiles": "COc1ccc2c(c1)c(=O)oc1c(C)c(OC(C)C(=O)N[C@@H](Cc3c[nH]c4ccc(O)cc34)C(=O)O)ccc12", "note": "(stereo not given in full)", "Potency": "inconclusive: 6.7 µM [inhibitor, full curve, poor fit]"},
      {"smiles": "CN1CCN(C(=O)c2cc3nc(-c4ccc(Cl)cc4)cc(C(F)(F)F)n3n2)CC1", "Potency": "inconclusive: 7.94 µM [inhibitor, single point]"},
      {"smiles": "O=C(NNC(=O)c1ccc(NC(=O)c2ccccc2)cc1)c1ccccc1", "Potency": "inconclusive: 22.4 µM [inhibitor, single point]"},
      {"smiles": "Cc1ccc(-c2ccc(/C=N\\NC(=O)C3C(=O)NCC3c3ccccc3)o2)cc1Cl", "note": "(stereo not given)", "Potency": "inconclusive: 4.47 µM [inhibitor, single point]"},
      {"smiles": "CC1CCc2c(sc(Nc3nc4c(F)cccc4s3)c2C(N)=O)C1", "note": "(stereo not given)", "Potency": "inconclusive: 22.4 µM [inhibitor, single point]"},
      {"smiles": "Nc1c(C(=O)NCc2ccco2)sc2nc3c(cc12)C(=O)CCC3", "Potency": "inconclusive: 28.2 µM [inhibitor, partial curve]"},
      {"smiles": "O=C1CCCC2(O)C1C(c1cccc(Br)c1)NC(=O)N2Cc1ccccc1", "note": "(stereo not given)", "activity change, negative = inhibition": "inactive: -0.79%"},
      {"smiles": "COc1ccc(-c2c(-c3ccc(OCC(=O)NN)cc3O)n[nH]c2C)cc1OC", "activity change, negative = inhibition": "inactive: -0.0571%"},
      {"smiles": "O=C(NC1CCCC1)C(c1cccnc1)N(C(=O)c1ccco1)c1cccc(F)c1", "note": "(stereo not given)", "activity change, negative = inhibition": "inactive: 44.4%"},
      {"smiles": "COc1ccccc1NC(=S)NC(=O)/C=C/c1ccco1", "Potency": "inconclusive: 31.6 µM [inhibitor, single point]"},
      {"smiles": "CCOC(=O)c1ccc(CC(=O)c2oc3cc(O)ccc3c2C)o1", "activity change, negative = inhibition": "inactive: -2.88%"},
      {"smiles": "COC(=O)CC1C(=O)NC(C)=C1C(=O)OC", "note": "(stereo not given)", "Potency": "inconclusive: 10 µM [inhibitor, single point]"},
      {"smiles": "CCOC(=O)C(CC)Sc1ccc2nnc(-c3cccnc3)n2n1", "note": "(stereo not given)", "activity change, negative = inhibition": "inactive: -1.38%"},
      {"smiles": "CC(C)c1nnc(NC(=O)c2c(O)c3cccc4c3n(c2=O)CCC4)s1", "Potency": "inconclusive: 50.1 µM [inhibitor, partial curve, poor fit]"},
      {"smiles": "Cc1nn(-c2ccccc2)c(N)c1N=Nc1cccc(S(=O)(=O)N2CCOCC2)c1", "Potency": "inconclusive: 17.8 µM [inhibitor, partial curve]"},
      {"smiles": "CC(=O)OCC(=O)C1CCC2C3CCC4=CC(=O)CC[C@@]4(C)C3CC[C@]12C", "note": "(stereo not given in full)", "activity change, negative = inhibition": "inactive: 1.89%"},
      {"smiles": "Cc1cc(C(=O)O)sc1C(N)C(=O)O", "note": "(stereo not given)", "activity change, negative = inhibition": "inactive: -7.06%"},
      {"smiles": "O=C(c1ccco1)N1CCN(C(=O)c2ccc(-c3ccc([N+](=O)[O-])cc3)o2)CC1", "Potency": "inconclusive: 23.8 µM [inhibitor, single point]"},
      {"smiles": "CCCCc1nc2c(c3c1C[C@H](C)OC3)CN(S(=O)(=O)c1ccccc1C(=O)OC)CC2", "activity change, negative = inhibition": "inactive: -1.51% [at 12.4 µM]"},
      {"smiles": "CSc1ccc(Cn2nnc(C(=O)Nc3ccc(C)c(C)c3)c2N)cc1", "Potency": "inconclusive: 1 µM [inhibitor, full curve, poor fit]"},
      {"smiles": "CCCC1=C(C(=O)OCC)C(c2sccc2C)n2ncnc2N1", "note": "(stereo not given)", "Potency": "inconclusive: 2.82 µM [inhibitor, partial curve, poor fit]"},
      {"smiles": "COc1ccc2nc3c(c(-c4ccccc4)c2c1)CCC3", "Potency": "inconclusive: 8.91 µM [inhibitor, partial curve, poor fit]"},
      {"smiles": "O=C(CCS(=O)(=O)c1ccc(Br)cc1)Nc1cc(F)ccc1F", "Potency": "inconclusive: 15.8 µM [inhibitor, partial curve, poor fit]"},
      {"smiles": "Cc1cc(C(=O)Nc2sc3c(c2C#N)CCC3)no1", "Potency": "inconclusive: 44.7 µM [inhibitor, single point]"},
      {"smiles": "CCOC(=O)CSc1nc2sc3c(c2c(=O)n1C1CCCCC1)CCN(C)C3", "Potency": "inconclusive: 0.005 µM [inhibitor, full curve, poor fit]"},
      {"smiles": "O=C(CCOc1ccccc1)Nc1cccc(S(=O)(=O)Nc2ccccc2Cl)c1", "Potency": "inconclusive: 31.6 µM [inhibitor, single point]"},
      {"smiles": "CCCCSc1nnc([C@@H](NC(=O)OC(C)(C)C)C(C)C)o1", "Potency": "inconclusive: 10 µM [inhibitor, single point]"},
      {"smiles": "Cc1oc2c(c1C(=O)N1CCOCC1)C(=O)c1ccccc1C2=O", "Potency": "inconclusive: 0.355 µM [inhibitor, full curve, poor fit]"},
      {"smiles": "COc1ccc(CCNc2oc(COc3ccc(Br)cc3)nc2C#N)cc1OC", "Potency": "inconclusive: 39.8 µM [inhibitor, single point]"},
      {"smiles": "CCc1ccc(NC2=CC(=O)C(=O)c3ccccc32)cc1", "Potency": "inconclusive: 23.8 µM [inhibitor, single point]"},
      {"smiles": "O=C(Nc1ccc(-c2nc3cccnc3s2)cc1)c1ccc(Cl)nc1", "Potency": "inconclusive: 0.0891 µM [inhibitor, full curve, poor fit]"},
      {"smiles": "COC(=O)c1cc(=O)[nH]c(SCc2cccc(C)c2)n1", "Potency": "inconclusive: 3.16 µM [inhibitor, single point]"},
      {"smiles": "C[C@H]1COC(=O)[C@H](CC(=O)OC(C)(C)C)C/C=C\\C[C@@H](CC(=O)N(CCO)Cc2ccccc2)C(=O)N1", "Potency": "inconclusive: 11.9 µM [inhibitor, partial curve]"},
      {"smiles": "O/N=C1\\CCC\\C1=C/c1ccco1", "Potency": "inconclusive: 39.8 µM [inhibitor, single point]"},
      {"smiles": "COc1ccc(NC(=O)CN(C)C(=O)c2cc3c(s2)CCC3)cc1", "Potency": "active: 1.89 µM"},
      {"smiles": "C=CCSc1nnc(NC(=O)CSc2nc3ccccc3[nH]2)s1", "Potency": "inconclusive: 35.5 µM [inhibitor, partial curve, poor fit]"},
      {"smiles": "Cc1ccc(NC(=O)COC(=O)COc2ccc(Cl)cc2C)c([N+](=O)[O-])c1", "Potency": "inconclusive: 0.282 µM [inhibitor, full curve, poor fit]"},
      {"smiles": "Oc1cccc(-c2nc3ccccc3s2)c1", "activity change, negative = inhibition": "inactive: -2.5%"},
      {"smiles": "S=c1[nH]nc(-c2ccccn2)n1/N=C/c1ccc(-c2ccccc2Br)o1", "activity change, negative = inhibition": "inactive: 12%"},
      {"smiles": "O=C(CC1NC(=O)NC1=O)NC1(C(=O)NC2CCCCC2)CCCCC1", "note": "(stereo not given)", "activity change, negative = inhibition": "inactive: 2.83%"},
      {"smiles": "CN1CCN(CC(=O)Nc2c(C#N)cnn2-c2ccccc2)CC1", "Potency": "inconclusive: 3.98 µM [inhibitor, single point]"},
      {"smiles": "O=C(O)c1cc(N2N=C(C(F)(F)F)/C(=C/C=C/c3ccco3)C2=O)ccc1Cl", "activity change, negative = inhibition": "inactive: 0.818%"},
      {"smiles": "CN(C)c1nc(SCCOC(=O)COc2ccc(Cl)cc2Cl)nc(N(C)C)n1", "Potency": "inconclusive: 44.7 µM [inhibitor, single point]"},
      {"smiles": "CCCCCCCCCCCCCCCCn1cc[n+](Cc2ccccc2)c1C", "Potency": "inconclusive: 22.4 µM [inhibitor, partial curve]"},
      {"smiles": "CC(=O)OC1CC(OC(C)=O)[C@]2(C)C(CC(OC(C)=O)[C@]3(C)C2CC[C@@]2(C)C(c4ccoc4)OC(=O)C4O[C@]432)C1(C)C", "note": "(stereo not given in full)", "activity change, negative = inhibition": "inactive: -3.22%"},
      {"smiles": "CCCCOc1ccc(C(=O)OCC(=O)c2c(N)n(C)c(=O)n(C)c2=O)cc1", "activity change, negative = inhibition": "inactive: -19.6%"},
      {"smiles": "C[C@H](NC(=O)CNC(=O)[C@@H](NC(=O)[C@H](Cc1ccccc1)NC(=O)CNC(=O)CNC(=O)[C@@H](N)Cc1ccccc1)[C@@H](C)O)C(=O)N[C@@H](CCCN=C(N)N)C(=O)N[C@@H](CCCCN)C(=O)N[C@@H](CO)C(=O)N[C@@H](C)C(=O)N[C@@H](CCCN=C(N)N)C(=O)N[C@H](CN)CCCCN", "activity change, negative = inhibition": "inactive: 5.67%"},
      {"smiles": "Cc1ccc(-c2c(C3C4C=CCC(C)C4C(=O)N3Cc3ccccc3)ccc3ccccc23)cc1", "note": "(stereo not given)", "activity change, negative = inhibition": "inactive: -0.22%"},
      {"smiles": "O=C(Nc1ccccc1)Nc1cccc(C(F)(F)F)c1", "activity change, negative = inhibition": "inactive: 4.74%"},
      {"smiles": "CSCC[C@H](NC(=O)[C@H](Cc1c[nH]c2ccccc12)NC(=O)CNC(=O)[C@H](Cc1ccc(O)cc1)NC(=O)[C@H](C)NC(=O)[C@H](CCC(=O)O)NC(=O)[C@H](CCC(=O)O)NC(=O)[C@H](CCC(=O)O)NC(=O)[C@H](CCC(=O)O)NC(=O)[C@H](CCC(=O)O)NC(=O)[C@H](CC(C)C)NC(=O)[C@H](Cc1c[nH]c2ccccc12)NC(=O)[C@@H]1CCCN1C(=O)CNC(=O)[C@@H]1CCC(=O)N1)C(=O)N[C@@H](CC(=O)O)C(=O)N[C@@H](Cc1ccccc1)C(=O)NCC(=O)O", "activity change, negative = inhibition": "inactive: 2.41%"}
    ]}
  ]
}
